Test results taken from paper PMC11984694.

Protein sequences, listed by entry. Tags and fused reporters are not part of them.
UniProt P12235: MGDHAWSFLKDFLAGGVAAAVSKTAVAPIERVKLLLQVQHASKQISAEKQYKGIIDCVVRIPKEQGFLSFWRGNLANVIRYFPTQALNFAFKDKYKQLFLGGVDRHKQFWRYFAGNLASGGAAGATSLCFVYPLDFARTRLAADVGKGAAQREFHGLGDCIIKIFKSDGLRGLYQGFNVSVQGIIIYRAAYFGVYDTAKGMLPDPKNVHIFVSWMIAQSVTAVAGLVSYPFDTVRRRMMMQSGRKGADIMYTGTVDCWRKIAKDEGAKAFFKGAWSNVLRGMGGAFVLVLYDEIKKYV

Biological target: T1, RAB9 GTPase (UniProt P51151)
T1 sequence: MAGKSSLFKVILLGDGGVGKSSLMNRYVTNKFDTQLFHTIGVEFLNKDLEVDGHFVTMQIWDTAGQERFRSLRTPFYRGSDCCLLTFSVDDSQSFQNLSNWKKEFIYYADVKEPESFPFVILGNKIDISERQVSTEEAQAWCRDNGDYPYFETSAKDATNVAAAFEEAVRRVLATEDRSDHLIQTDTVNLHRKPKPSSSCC
Assay: affinity purification with mass spectrometry; IP-MS in 293 T cells; RAB9 as bait; no further conditions told

binding: binds
Substance: Adenine nucleotide translocase 1 (from UniProt P12235 1-298)

Results are given in words; binding and its absence hold for the method and conditions named. In cells and extracts the contact can be indirect. These calls come from enrichment with a bait or labelling near it, and not all partners need be listed.
